# Columns and labels:
# P. aeruginosa PA14 [1] = assay: LC-MS/MS analyses of metabolites in PA14 culture supernatant; assay type: cell-based, Pseudomonas aeruginosa; conditions: 200 μM, 9 h, 37 °C, relative to DMSO control, normalized to OD620
# Procedure: LC-MS analyses of metabolites
# P. aeruginosa PA14 strain was grown overnight (~16 h) in LB media at 37 °C and 200 RPM.
# The overnight culture was diluted 1:100 in fresh LB media. 4 mL of this culture was added into a 15 mL borosilicate glass tube, to which Rilu-inhibitors in DMSO were added to a final concentration of 200 µM (for the control experiments, same amount of DMSO was added).
# These cultures were grown for 9 h (late exponential phase) or 24 h (stationary phase) at 37 °C and 200 RPM. The OD620 values were measured using a spectrophotometer. 1 mL of each culture was placed in a 1.7 mL Eppendorf tube, centrifuged at 5,000 g for 5 min and the supernatant was removed from the cell pellets. The supernatants were directly analyzed on an ESI-LC-MS/MS instrument for metabolites and the cell pellets (from 9 h cultures) were further used for RNA extraction in q-PCR experiments. […]
# instrument. Injections of 2 µ L were separated on Zorbax Eclipse plus C18 column (2.1 mm x 50 mm) and with mobile phases A (5% MeOH:95% water with 0.1% formic acid) and B (95% MeOH:5% water with 0.1% formic acid). […] Samples were measured in positive ion mode and data was collected in triplicate. Data were analyzed using the Agilent MassHunter Quantitative Analysis suite. […] The following ions were analyzed: […]
# P. aeruginosa PA14 [2] = assay: Growth of PA14 cultures with inhibitors (OD620, CFU); assay type: cell-based, Pseudomonas aeruginosa; conditions: Table S3, PA14 cultures for metabolomics, 200 µM, 37 °C
smiles,measurement,setting,value
"Nc1nc2ccc(OC(F)(F)F)cc2s1 [Rilu-1, riluzole, reference compound]",Increase of HHQ level,P. aeruginosa PA14 [1],~24%
same,"t = 9 h, OD620",P. aeruginosa PA14 [2],0.817
same,"t = 24 h, OD620",P. aeruginosa PA14 [2],1.63

# From article PMC6237130, “Disarming the virulence arsenal of Pseudomonas aeruginosa by blocking two-component system signaling” (Chemical Science, 2018)
